This is an account of results in US20230257458A1.

These are yes or no findings as the source states them, for the method shown. Some results given as binding are weak or reduced against the parent protein; the word gives no strength. Tags and fused reporters may be left off the sequences shown.

The assay has as its target T1, IL-11R-His protein (UniProt Q14626).
T1 sequence (looked up): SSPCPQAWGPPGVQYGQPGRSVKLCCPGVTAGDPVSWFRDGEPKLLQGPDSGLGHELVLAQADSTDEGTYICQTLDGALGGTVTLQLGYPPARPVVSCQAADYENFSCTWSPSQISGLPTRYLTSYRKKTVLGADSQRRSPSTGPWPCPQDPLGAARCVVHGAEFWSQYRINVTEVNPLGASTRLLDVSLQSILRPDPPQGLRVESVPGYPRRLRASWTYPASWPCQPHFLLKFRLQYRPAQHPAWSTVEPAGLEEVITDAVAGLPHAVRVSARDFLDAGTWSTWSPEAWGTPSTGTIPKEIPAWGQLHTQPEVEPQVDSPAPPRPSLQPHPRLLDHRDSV
As to the kind of experiment: ELISA: IL-11R-His coated, IL-11-Fc added without antibody, detection with HRP goat anti-IgG-Fc. A general note: In an ELISA, binding on a coated surface is turned into a signal by an enzyme label.

B1: IL-11-Fc protein (Fc fusion, UniProt P20809 22-199, looked up, not shown: a dimerising Fc or GST)
chain: PGPPPGPPRVSPDPRAELDSTVLLTRSLLADTRQLAAQLRDKFPADGDHNLDSLPTLAMSAGALGALQLPGVLTRLRADLLSYLRHVQWLRRAGGSSLKTLEPELGTLQARLDRLLRRLQLLMSRLALPQPPPDPPAPPLAPPSSAWGGIRAAHAILGGLHLTLDWAVRGLLLLKTRL
Turning to B1, the binding entry was “binds”.
